The source of these data is article PMC3427372, “Proteomic Analysis Reveals New Cardiac-Specific Dystrophin-Associated Proteins” (PLoS ONE, 2012).

The chains behind the UniProt entries cited, without tags or fusion partners.
UniProt P11531: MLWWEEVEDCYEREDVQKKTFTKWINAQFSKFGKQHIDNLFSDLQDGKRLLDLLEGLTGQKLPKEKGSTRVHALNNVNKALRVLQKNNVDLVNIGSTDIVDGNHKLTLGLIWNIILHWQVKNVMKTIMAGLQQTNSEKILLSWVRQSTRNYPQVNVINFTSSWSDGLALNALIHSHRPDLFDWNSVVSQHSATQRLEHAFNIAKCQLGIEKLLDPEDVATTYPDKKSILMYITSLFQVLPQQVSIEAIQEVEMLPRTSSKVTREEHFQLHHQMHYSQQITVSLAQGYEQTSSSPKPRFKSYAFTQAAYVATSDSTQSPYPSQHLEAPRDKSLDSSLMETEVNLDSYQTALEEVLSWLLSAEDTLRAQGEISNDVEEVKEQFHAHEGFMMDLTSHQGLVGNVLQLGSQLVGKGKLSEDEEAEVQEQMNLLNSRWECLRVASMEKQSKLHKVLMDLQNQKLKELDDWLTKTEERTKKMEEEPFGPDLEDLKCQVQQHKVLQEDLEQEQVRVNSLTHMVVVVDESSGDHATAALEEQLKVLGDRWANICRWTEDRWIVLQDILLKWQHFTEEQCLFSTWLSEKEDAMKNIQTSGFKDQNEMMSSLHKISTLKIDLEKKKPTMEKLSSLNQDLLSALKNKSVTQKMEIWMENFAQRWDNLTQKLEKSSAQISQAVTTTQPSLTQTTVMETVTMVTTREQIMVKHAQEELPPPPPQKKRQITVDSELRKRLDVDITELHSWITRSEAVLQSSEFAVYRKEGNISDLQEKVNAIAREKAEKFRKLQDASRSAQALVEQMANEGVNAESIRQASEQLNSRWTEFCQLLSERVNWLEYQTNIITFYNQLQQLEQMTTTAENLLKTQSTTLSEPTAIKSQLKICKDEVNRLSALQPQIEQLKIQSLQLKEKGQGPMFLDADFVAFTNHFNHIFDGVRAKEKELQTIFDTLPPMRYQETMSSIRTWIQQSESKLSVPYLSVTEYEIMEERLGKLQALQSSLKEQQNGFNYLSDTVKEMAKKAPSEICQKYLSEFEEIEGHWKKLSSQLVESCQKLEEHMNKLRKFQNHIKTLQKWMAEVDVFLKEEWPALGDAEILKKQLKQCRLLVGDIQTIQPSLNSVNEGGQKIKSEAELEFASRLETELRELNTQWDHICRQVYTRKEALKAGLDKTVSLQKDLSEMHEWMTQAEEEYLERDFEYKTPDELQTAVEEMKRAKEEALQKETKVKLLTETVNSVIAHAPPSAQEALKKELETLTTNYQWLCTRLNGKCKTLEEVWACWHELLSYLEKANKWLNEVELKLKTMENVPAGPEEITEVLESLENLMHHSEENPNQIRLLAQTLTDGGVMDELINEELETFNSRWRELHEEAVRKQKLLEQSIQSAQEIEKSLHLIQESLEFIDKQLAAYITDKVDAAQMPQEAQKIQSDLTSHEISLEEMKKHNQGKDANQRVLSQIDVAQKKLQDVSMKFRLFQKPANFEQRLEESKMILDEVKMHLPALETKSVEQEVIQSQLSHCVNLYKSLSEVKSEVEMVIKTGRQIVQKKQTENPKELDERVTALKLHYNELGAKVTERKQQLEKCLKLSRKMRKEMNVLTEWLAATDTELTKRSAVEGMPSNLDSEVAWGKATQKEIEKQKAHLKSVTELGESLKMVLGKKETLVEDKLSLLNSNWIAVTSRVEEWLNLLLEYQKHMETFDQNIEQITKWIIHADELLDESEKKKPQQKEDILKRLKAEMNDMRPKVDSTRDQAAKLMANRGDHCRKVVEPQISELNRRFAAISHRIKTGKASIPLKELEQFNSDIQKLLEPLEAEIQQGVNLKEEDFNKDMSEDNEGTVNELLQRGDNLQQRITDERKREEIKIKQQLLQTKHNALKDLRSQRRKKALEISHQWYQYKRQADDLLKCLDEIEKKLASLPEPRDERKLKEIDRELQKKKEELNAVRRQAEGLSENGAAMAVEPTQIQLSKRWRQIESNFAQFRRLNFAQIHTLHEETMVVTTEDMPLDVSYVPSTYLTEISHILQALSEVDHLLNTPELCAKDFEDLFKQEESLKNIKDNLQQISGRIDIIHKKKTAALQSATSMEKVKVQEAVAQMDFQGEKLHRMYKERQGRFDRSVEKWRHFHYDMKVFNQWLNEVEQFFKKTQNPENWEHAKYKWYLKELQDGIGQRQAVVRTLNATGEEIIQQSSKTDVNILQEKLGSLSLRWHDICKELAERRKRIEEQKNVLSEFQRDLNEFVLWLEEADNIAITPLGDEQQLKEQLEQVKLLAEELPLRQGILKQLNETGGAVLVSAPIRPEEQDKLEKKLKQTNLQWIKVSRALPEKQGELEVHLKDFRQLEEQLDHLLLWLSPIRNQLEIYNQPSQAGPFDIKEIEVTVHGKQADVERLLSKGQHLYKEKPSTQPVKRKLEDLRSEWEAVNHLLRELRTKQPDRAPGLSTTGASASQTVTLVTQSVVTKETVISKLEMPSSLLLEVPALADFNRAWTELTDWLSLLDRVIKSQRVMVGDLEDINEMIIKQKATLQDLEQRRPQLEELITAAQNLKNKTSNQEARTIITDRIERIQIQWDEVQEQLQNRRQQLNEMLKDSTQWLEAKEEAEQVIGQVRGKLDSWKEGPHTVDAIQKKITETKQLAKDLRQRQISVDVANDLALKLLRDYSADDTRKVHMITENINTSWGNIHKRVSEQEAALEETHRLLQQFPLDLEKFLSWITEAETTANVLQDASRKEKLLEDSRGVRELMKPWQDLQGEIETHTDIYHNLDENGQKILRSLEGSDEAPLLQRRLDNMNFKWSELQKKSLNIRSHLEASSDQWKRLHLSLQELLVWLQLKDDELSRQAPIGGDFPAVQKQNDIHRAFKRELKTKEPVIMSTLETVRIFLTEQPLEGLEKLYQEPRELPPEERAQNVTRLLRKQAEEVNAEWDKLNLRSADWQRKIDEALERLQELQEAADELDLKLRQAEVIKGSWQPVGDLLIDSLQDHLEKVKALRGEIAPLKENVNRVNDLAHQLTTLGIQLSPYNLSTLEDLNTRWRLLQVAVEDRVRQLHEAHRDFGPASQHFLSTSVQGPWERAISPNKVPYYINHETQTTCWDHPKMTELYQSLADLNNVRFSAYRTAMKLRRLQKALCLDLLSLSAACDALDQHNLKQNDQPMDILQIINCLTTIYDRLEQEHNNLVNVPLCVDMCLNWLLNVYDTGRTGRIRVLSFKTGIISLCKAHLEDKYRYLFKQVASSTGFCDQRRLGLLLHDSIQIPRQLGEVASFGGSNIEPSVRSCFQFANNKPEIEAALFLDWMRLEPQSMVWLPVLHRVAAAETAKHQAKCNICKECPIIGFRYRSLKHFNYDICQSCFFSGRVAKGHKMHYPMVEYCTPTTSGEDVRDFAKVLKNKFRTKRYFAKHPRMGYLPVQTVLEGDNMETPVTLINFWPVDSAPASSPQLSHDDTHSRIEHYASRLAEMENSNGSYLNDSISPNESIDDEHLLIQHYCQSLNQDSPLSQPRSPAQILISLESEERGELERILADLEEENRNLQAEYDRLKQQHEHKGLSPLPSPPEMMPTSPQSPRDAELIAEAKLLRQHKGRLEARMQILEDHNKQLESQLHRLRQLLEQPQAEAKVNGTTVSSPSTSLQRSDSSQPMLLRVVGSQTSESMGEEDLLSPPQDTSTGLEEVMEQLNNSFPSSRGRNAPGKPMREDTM

No constants are given. Whether binding was seen depends on the method and setting. Binding seen in cells or lysates may run through a third protein. Here binding means that the protein was enriched with, or labelled near, the bait; the list need not be complete.

Assay [1] deals with Dystrophin (mouse (endogenous in cardiac and skeletal muscle)) (UniProt P11531). The experiment in a line: affinity purification with mass spectrometry; DYS-IP from wild type mouse heart (cardiac ventricles): MANDYS1 anti-dystrophin antibody cross-linked to protein G magnetic beads, 2-5 mg protein extracted in 1% digitonin, 0.05% NP-40, 150 mM NaCl, 50 mM Tris pH 7.4, 3 hr at 4°C; eluate analysed by LC-MS/MS; controls IgG-IP and MDX-IP; 3 biological replicates.

Assay [2] shares this target. Put plainly: affinity purification with mass spectrometry; DYS-IP from wild type mouse skeletal muscle (quadriceps): MANDYS1 anti-dystrophin antibody cross-linked to protein G magnetic beads, 2-5 mg protein extracted in 1% digitonin, 0.05% NP-40, 150 mM NaCl, 50 mM Tris pH 7.4, 3 hr at 4°C; eluate analysed by LC-MS/MS; controls IgG-IP and MDX-IP; 3 biological replicates.

B1: α1-Syntrophin (protein, UniProt Q61234 1-503)
chain: MASGRRAPRTGLLELRCGAGSGAGGERWQRVLLSLAEDALTVSPADGEPGPEPEPAQLNGAAEPGAAPPQLPEALLLQRRRVTVRKADAGGLGISIKGGRENKMPILISKIFKGLAADQTEALFVGDAILSVNGEDLSSATHDEAVQALKKTGKEVVLEVKYMKEVSPYFKNSAGGTSVGWDSPPASPLQRQPSSPGPQPRNLSEAKHVSLKMAYVSRRCTPTDPEPRYLEICAADGQDAVFLRAKDEASARSWAGAIQAQIGTFIPWVKDELQALLTATGTAGSQDIKQIGWLTEQLPSGGTAPTLALLTEKELLFYCSLPQSREALSRPTRTAPLIATSSAHRLVHSGPSKGSVPYDAELSFALRTGTRHGVDTHLFSVESPQELAAWTRQLVDGCHRAAEGIQEVSTACTWNGRPCSLSVHIDKGFTLWAAEPGAARAMLLRQPFEKLQMSSDDGTSLLFLDFGGAEGEIQLDLHSCPKTMVFIIHSFLSAKVTRLGLLA
As for B1, the binding entry in assay [1] and in assay [2] was “binds” each time.

B2: β1-Syntrophin (natural protein, UniProt Q99L88 1-537, looked up)
chain: MAVAAAAVAAPAGGGGARAQRSGLLEVLVRDRWHKVLVNLSEDALVLSCEEGAAAYNGIGAATNGSFCRGSGTGHPVPGVAQAPDSPAGVRTAFTDLPEQVPESISNQKRGVKVLKQELGGLGISIKGGKENKMPILISKIFKGLAADQTQALYVGDAILSVNGADLRDATHDEAVQALKRAGKEVLLEVKYMREATPYVKKGSPVSEIGWETPPPESPRLGGGSAEPLSSQSFSFHRDRKSIPLKMCYVTRNMTLADPENRQLEIHSPDAKHTVILRSKDSATAQAWFSAIHSNAGDLLTRVVADIREQLGKTGIAGSREIRHLGWLAEKVPGESEKQWKPALVVLTEKDLLIYDSMPRRKEAWFSPVHSYPLLATRLVHSGPGKGSPQAGMDLSFATRTGTKQGIETHLFRAEISRDLSHWTRSIVQGCHNSAELTAEITTACTYRNQECRLTIHYDNGFSISTEPQDGAFPKTIIQSPYEKLKMSSDDGIRMLYLDFGGKEGEIQLDLHSCPKPIVFIIHSFLSAKITRLGLVA
notes: β1-syntrophin, mouse; source: endogenous, mouse cardiac ventricle and skeletal muscle (quadriceps) lysate
On to B2, for which the binding result in assay [1] and in assay [2] was “binds” in each case.
